Results are given in words; binding and its absence hold for the method and conditions named.
Assays:
[1] = target: recombinant human FGF (human); test: ELISA, cytokine coated on plate
[2] = target: recombinant human FGF (human); test: ELISA, plate coated with the cytokine at 2 µg/ml, FB704 in four-fold serial dilutions, HRP-labeled goat anti-human IgG, A450 [Cont'd) B]

binding [2]: no binding (tested: 2 µg/ml)
B1: Ag1-4-6 (fully human anti-IL6 IgG1 antibody) (antibody, V domains shown)
VH: EVQLVESGPALVKPTQTLTLTCTFSGFSLSTGGMSVSWIRQPPGKALEWLARIDWDDDKFYTPSLKTRLTISRDTSKNQVVLIMTNMDPVDTATYYCARMHIDDSNGYYSDAFHIWGQGTMVTVSS
VL: EIVLTQSPATLSVSPGERVTLSCRDSQSVSSTSLAWYQQKSGQAPRLLIYDTSNRATGIPARFSGGGSGTDFTLTISSLEPEDFAVYYCSFVSRPYPRFTFGQGTKVEIK
binding [1]: no binding (tested: 2 µg/ml starting concentration)
